Binding data for two substances are collected here from paper PMC11811033.

The chains behind the UniProt entries cited, without tags or fusion partners. Where a name states a change or a piece, a line headed by the entry shows the natural chain unless it says otherwise.
UniProt P06213: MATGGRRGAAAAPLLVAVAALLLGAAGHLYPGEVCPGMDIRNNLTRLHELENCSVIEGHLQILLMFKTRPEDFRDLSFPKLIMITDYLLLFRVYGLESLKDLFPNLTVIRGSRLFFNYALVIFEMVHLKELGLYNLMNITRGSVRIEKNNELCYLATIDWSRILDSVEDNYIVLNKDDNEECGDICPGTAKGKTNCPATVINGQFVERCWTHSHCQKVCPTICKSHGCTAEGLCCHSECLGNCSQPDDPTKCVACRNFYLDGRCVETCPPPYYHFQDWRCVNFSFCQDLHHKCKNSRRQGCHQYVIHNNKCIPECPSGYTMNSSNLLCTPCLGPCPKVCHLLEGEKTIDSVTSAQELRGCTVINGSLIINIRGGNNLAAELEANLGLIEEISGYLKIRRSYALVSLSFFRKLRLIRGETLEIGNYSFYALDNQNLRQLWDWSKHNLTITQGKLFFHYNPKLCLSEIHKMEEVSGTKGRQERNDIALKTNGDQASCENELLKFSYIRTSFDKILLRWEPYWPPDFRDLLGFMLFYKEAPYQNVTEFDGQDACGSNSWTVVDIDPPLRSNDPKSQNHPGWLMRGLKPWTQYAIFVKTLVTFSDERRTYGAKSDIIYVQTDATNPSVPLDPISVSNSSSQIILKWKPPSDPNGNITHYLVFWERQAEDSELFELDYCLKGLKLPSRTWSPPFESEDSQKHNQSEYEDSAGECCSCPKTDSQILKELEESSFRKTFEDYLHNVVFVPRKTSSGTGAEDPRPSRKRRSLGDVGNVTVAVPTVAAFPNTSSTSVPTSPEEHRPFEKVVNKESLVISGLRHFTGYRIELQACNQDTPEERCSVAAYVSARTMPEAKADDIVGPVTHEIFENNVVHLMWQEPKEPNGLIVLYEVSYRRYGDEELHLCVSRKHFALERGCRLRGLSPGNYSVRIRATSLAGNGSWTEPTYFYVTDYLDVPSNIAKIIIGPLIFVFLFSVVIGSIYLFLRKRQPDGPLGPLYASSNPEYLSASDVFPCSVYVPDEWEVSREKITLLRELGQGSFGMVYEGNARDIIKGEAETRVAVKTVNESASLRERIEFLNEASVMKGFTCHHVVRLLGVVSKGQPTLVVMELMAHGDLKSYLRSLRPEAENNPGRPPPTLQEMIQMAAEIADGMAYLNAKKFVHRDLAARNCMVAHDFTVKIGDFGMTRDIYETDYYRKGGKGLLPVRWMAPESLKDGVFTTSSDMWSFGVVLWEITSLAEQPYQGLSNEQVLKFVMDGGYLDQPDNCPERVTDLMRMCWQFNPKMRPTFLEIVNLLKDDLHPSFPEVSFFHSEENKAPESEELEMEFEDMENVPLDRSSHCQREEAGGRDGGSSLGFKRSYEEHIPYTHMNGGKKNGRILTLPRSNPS
UniProt Q13049: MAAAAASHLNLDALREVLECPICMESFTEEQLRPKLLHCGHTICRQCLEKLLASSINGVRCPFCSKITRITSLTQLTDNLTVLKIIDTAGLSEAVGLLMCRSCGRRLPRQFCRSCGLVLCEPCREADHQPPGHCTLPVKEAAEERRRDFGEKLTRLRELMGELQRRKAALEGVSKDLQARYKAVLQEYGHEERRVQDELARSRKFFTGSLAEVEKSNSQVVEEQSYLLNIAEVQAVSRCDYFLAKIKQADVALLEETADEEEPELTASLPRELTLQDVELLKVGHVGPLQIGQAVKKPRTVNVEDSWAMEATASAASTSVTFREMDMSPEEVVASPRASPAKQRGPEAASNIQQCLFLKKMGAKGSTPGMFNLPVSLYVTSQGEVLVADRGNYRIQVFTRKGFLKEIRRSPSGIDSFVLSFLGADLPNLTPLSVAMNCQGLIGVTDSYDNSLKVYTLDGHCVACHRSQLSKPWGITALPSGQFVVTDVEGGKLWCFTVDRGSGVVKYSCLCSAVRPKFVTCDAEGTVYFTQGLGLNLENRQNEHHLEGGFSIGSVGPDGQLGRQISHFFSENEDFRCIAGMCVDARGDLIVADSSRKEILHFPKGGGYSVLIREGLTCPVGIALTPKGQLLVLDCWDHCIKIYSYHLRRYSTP

Results are given in words; binding and its absence hold for the method and conditions named. Binding seen in cells or lysates may run through a third protein. Some entries that bind do so weakly or less than the wild type.

The target in test [1] is INSR-WT (human insulin receptor from the plasmid GFP-hIR) expressed in mouse primary hepatocytes (human) (UniProt P06213). As to the kind of experiment: co-IP; mouse primary hepatocytes transfected with INSR-WT or INSR K1085R and the TRIM32 plasmid, 48 h; immunoprecipitated with the INSR antibody, TRIM32 found by Western blot.
Test [2] concerns the target insulin receptor (INSR), endogenous in HepG2 cells (human (endogenous in HepG2)) (UniProt P06213). As to the kind of experiment: co-IP; HepG2 transfected with pEGFP-N1_hTRIM32, 48 h; NP-40 lysis buffer (NaCl 100 mM, HEPES 30 mM, NP-40 0.5%, pH 7.4); 800 ug protein with Dynabeads and insulin receptor antibody overnight; endogenous INSR precipitated, TRIM32 found by Western blot.

Consider “TRIM32 (from the TRIM32 plasmid) expressed in mouse primary hepatocytes (from UniProt Q13049 1-653) (enzyme)”, for which the binding entry in test [1] is “binds”.

In the case of “tripartite motif-containing protein 32 (TRIM32), GFP-TRIM32 expressed in HepG2 cells (from UniProt Q13049 1-653) (enzyme)”, the binding entry in test [2] was “binds”.
